Results deposited as PubChem BioAssay AID652243 (Drosophila RNAi Screening Center, 2013).

Aim: 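Fly regulators of androgen-dependent reporter output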 (primary screen)
Cells: Drosophila S2R+ cells
Reagent: long dsRNA against Drosophila genes
Duration: 72 h (48 h, then 24 h hormone)
Treatment: synthetic androgen R1881 at 10 nM for 24 h
Measured: 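Per-well raw luminescence of the androgen-driven firefly reporter and of the Renilla control, two replicates each, without normalisation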
Scale: firefly reporter light: higher = more light from androgen-responsive reporter; Renilla control light: higher = more constitutive control signal (cell number, transfection)
Hit rule: 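Hit when the log firefly-to-Renilla ratio dropped or increased by a fixed fold versus the mean of GFP or LacZ controls across duplicate plates; lowering cut given as 1.5 and as 3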
Calls: active = hit: reporter lowered or raised; inactive = no hit
In all, the deposit lists about 24,000 reagents; shown is a random part of those with a known target gene and a result. Over the whole deposit, 246 (1%) are marked active. 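Plates not normalised; calls are printed but the firefly/Renilla ratio behind them is not deposited; fold cut for lowering reported inconsistently.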 Raw values vary from plate to plate and are shown uncorrected. The numbers tell different reagents against one gene apart. Names joined by + are all predicted targets of the reagent. Not given: the amount of reagent.

target	dsRNA no.	firefly reporter light, replicate 1	firefly reporter light, replicate 2	Renilla control light, replicate 1	Renilla control light, replicate 2	outcome
CG34328	1	1.01e6	8.77e5	1.98e6	1.48e6	inactive
CG31954	1	9.41e5	7.35e5	2.25e6	1.71e6	inactive
CG31954	2	4.92e5	4.07e5	1.68e6	1.30e6	inactive
CNT2	1	1.18e6	1.43e6	1.02e6	1.10e6	inactive
CG33285	1	1.00e5	66675	3.20e5	1.88e5	inactive
CG33285	2	6.80e5	4.87e5	8.57e5	6.11e5	inactive
CG17752	1	2.86e5	3.44e5	3.20e6	3.81e6	inactive
CG17752	2	2.97e5	2.75e5	6.36e5	5.55e5	inactive
Rai1	1	5.24e5	4.62e5	3.39e6	2.24e6	inactive
Rai1	2	3.94e5	2.67e5	1.36e6	1.32e6	inactive
meep	1	1.34e5	1.12e5	2.61e5	2.94e5	inactive
meep	2	8.59e5	5.88e5	8.41e5	7.11e5	inactive
CG32983	1	8.13e5	8.55e5	5.65e5	5.88e5	inactive
Or45a	1	3.12e5	2.41e5	1.55e6	2.08e6	inactive
Or45a	2	4.44e5	3.51e5	7.24e5	5.56e5	inactive
CG15357	1	1.36e5	1.39e5	8.22e5	1.04e6	inactive
TrxT	1	6.70e5	9.73e5	1.27e6	1.73e6	inactive
ine	1	4.73e5	7.59e5	9.15e5	1.29e6	inactive
ine	2	5.10e5	3.37e5	1.58e6	1.34e6	inactive
kto	1	21206	27042	4.60e5	3.56e5	inactive
Cep97	1	7.93e5	1.08e6	7.98e5	1.02e6	inactive
Cep97	2					inactive
Cep97	3					inactive
CG32376	1	9.04e5	1.14e6	1.89e6	1.78e6	inactive
PTPMT1	1	1.32e5	1.76e5	1.90e6	2.29e6	inactive
Or67b	1	2.94e5	2.63e5	3.14e6	2.02e6	inactive
Smyd4-2	1	1.69e5	1.36e5	6.88e5	1.15e6	inactive
Smyd4-2	2	3.71e5	5.05e5	6.72e5	8.04e5	inactive
Mocs1	1	1.95e5	2.30e5	1.59e6	1.37e6	inactive
Rad1 + Sws1	1	1.12e5	1.24e5	7.96e5	7.16e5	inactive
CG17108	1	2.27e5	2.82e5	2.46e6	2.82e6	inactive
CG17108	2	4.35e5	4.28e5	1.20e6	1.04e6	inactive
CG17108	3	8.31e5	5.93e5	1.42e6	1.21e6	inactive
Prx6a	1	8.57e5	9.41e5	3.59e6	2.57e6	inactive
Mkk4	1	1.58e5	1.71e5	2.82e6	2.54e6	inactive
Mkk4	2	5.03e5	3.45e5	1.65e6	1.04e6	inactive
Mkk4	3					inactive
CG31809	1	1.83e5	1.95e5	3.57e5	6.12e5	inactive
CG4631	1	3.63e5	4.45e5	2.05e6	2.65e6	inactive
CG4631	2	5.42e5	4.98e5	2.20e6	1.71e6	inactive
CG31327	1	1.68e5	1.66e5	3.92e5	3.60e5	inactive
Dus2	1	1.26e5	1.08e5	5.25e5	5.74e5	inactive
CG42813	1	83504	80317	8.15e5	7.77e5	inactive
CG11342	1	1.10e5	1.17e5	1.15e6	1.92e6	inactive
CG11342	2	2.74e5	2.60e5	4.45e5	3.88e5	inactive
CG13473	1	8.73e5	7.51e5	9.40e5	1.01e6	inactive
Cul1	1	1.13e6	1.19e6	1.62e6	1.54e6	inactive
Cul1	2	2.37e5	2.96e5	5.62e5	5.89e5	inactive
Pnn	1	97562	1.48e5	2.34e6	2.47e6	inactive
Nle	1	97749	95247	6.32e5	8.07e5	inactive
TTLL4B	1	1.01e6	1.03e6	1.37e6	1.36e6	inactive
TTLL4B	2	7.44e5	8.86e5	1.40e6	1.62e6	inactive
a10	1	1.79e5	1.52e5	1.80e6	1.65e6	inactive
CG7970	1	1.08e6	5.11e5	2.09e6	1.43e6	inactive
CG7970	2	3.44e5	2.69e5	8.11e5	6.34e5	inactive
CG15506	1	1.56e5	1.49e5	1.60e6	2.44e6	inactive
Smyd4-1	1	1.28e6	9.74e5	2.32e6	1.82e6	inactive
Smyd4-1	2	2.18e5	1.81e5	6.20e5	7.49e5	inactive
